Laboratory results: PubChem BioAssay AID743121 (NCATS, 2013)

- Aim: 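Partners whose loss is lethal together with topoisomerase I blockade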 (primary screen)
- Cells: MDA-MB-231 cells, a human breast cancer line
- Reagents: single siRNA against human genes, 20 nM siRNA (0.8 pmol per well)
- Timing: 120 h (drug added 48 h after transfection, read 72 h later)
- Challenge: camptothecin 20 nM (about EC30) for 72 h; vehicle 0.1% DMSO in parallel plates
- Read-out: 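CellTiter-Glo ATP signal, scaled to control siRNA as percent viability; sensitisation given as log2 of untreated divided by camptothecin-treated viability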
- Scale: log2 vehicle/camptothecin viability: higher = stronger sensitisation to camptothecin; viability with camptothecin and viability without drug: higher = more viable cells
- Hit rule: 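Each gene scored by redundant siRNA activity (RSA) over its individual siRNA ratios; a gene is called active at p < 0.001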
This is an unselected part of about 26,000 reagents. Of all reagents, 167 (0.63%) were called active. 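Calls are per gene from RSA p-values that are not deposited; an individual active-marked siRNA can sensitise only weakly.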 Reagents against one gene are numbered here. No sequences are given here.

gene knocked down	siRNA no.	log2 vehicle/camptothecin viability	viability with camptothecin (% of control)	viability without drug (% of control)	call
RTP1 (GeneID 132112)	1	-0.0778	76.5	72.4	inactive
RTP1 (GeneID 132112)	2	-0.521	92.7	64.6	inactive
RTP1 (GeneID 132112)	3	-0.101	113	105	inactive
ADH1B (GeneID 125)	1	-0.207	70.6	61.1	inactive
ADH1B (GeneID 125)	2	0.0239	102	103	inactive
ADH1B (GeneID 125)	3	-0.278	54	44.6	inactive
ADH1B (GeneID 125)	4	-0.22	97.3	83.5	inactive
GNAO1 (GeneID 2775)	1	0.0503	96.4	99.8	inactive
GNAO1 (GeneID 2775)	2	-0.0573	70.6	67.8	inactive
CD300C (GeneID 10871)	1	-0.713	96.6	59	inactive
CD300C (GeneID 10871)	2	-0.203	74.7	64.9	inactive
CD300C (GeneID 10871)	3	-0.777	52.5	30.6	inactive
CD300C (GeneID 10871)	4	0.0995	109	116	inactive
XRCC3 (GeneID 7517)	1	0.98	42.7	84.3	inactive
XRCC3 (GeneID 7517)	2	0.105	97.4	105	inactive
XRCC3 (GeneID 7517)	3	-0.0355	48.4	47.2	inactive
XRCC3 (GeneID 7517)	4	0.116	35.9	38.9	inactive
DRD2 (GeneID 1813)	1	-0.128	38.6	35.4	inactive
DRD2 (GeneID 1813)	2	0.187	31	35.3	inactive
DRD2 (GeneID 1813)	3	-0.483	68.2	48.8	inactive
DRD2 (GeneID 1813)	4	-0.354	89.9	70.3	inactive
GGH (GeneID 8836)	1	-0.0735	64.4	61.2	inactive
GGH (GeneID 8836)	2	-0.16	86.9	77.8	inactive
GGH (GeneID 8836)	3	-0.372	70.3	54.4	inactive
GGH (GeneID 8836)	4	0.00114	77.7	77.7	inactive
CD48 (GeneID 962)	1	-0.233	76.9	65.5	inactive
CD48 (GeneID 962)	2	-0.184	35.8	31.6	inactive
CD48 (GeneID 962)	3	0.0122	36.8	37.2	inactive
CD48 (GeneID 962)	4	-0.414	67.1	50.3	inactive
MSL2 (GeneID 55167)	1	0.005	102	102	inactive
MSL2 (GeneID 55167)	2	-0.0543	86.8	83.6	inactive
MSL2 (GeneID 55167)	3	-0.494	91.2	64.8	inactive
MSL2 (GeneID 55167)	4	-0.138	93	84.5	inactive
MAN2C1 (GeneID 4123)	1	-0.0157	88.8	87.8	inactive
MAN2C1 (GeneID 4123)	2	-0.134	68.3	62.3	inactive
MAN2C1 (GeneID 4123)	3	-0.142	107	96.8	inactive
MAN2C1 (GeneID 4123)	4	0.0806	79.3	83.8	inactive
PLIN2 (GeneID 123)	1	-0.329	84.6	67.4	inactive
PLIN2 (GeneID 123)	2	0.515	39.5	56.5	inactive
PLIN2 (GeneID 123)	3	0.339	51.5	65.2	inactive
PLIN2 (GeneID 123)	4	0.14	48.1	53	inactive
MMP23B (GeneID 8510)	1	-0.41	96.5	72.7	inactive
MMP23B (GeneID 8510)	2	-0.334	98.7	78.3	inactive
MMP23B (GeneID 8510)	3	-0.0817	24	22.7	inactive
MILR1 (GeneID 284021)	1	-0.433	78.7	58.3	inactive
MILR1 (GeneID 284021)	2	-0.155	78	70.1	inactive
MILR1 (GeneID 284021)	3	-0.322	89.7	71.7	inactive
